Some of the results follow. These are raw signals, not scaled to a control.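 In the initial screen, polymyxin B was used at a concentration that permeabilizes Salmonella's outer membrane but not its inner membrane. Maximum growth was set by DMSO wells with or without polymyxin B. Since plates varied, data were ranked per plate, and compounds giving the lowest OD600 advanced as hits.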
System: Salmonella enterica serovar Typhimurium SL1344
Test: bacterial growth OD600 after 18 h with compound and polymyxin B; higher = more bacterial growth (less inhibition)
Conditions: 50 µM, Mueller-Hinton broth

Structure (SMILES)	bacterial growth OD600 (polymyxin B 0.75 µg/mL)	bacterial growth OD600 (polymyxin B 1 µg/mL)
COc1cc(CN2CCCC2)ccc1OCC(O)CN1CCCCCCC1 (stereo not given)	0.811	–
COC(=O)c1ccc(-c2noc(CN3CCN(c4ccccc4F)CC3)n2)cc1	0.757	–
Cc1cc(C(=O)N2CCCC(Nc3ccc4c(c3)OCCO4)C2)c(C)o1 (stereo not given)	–	0.914
COc1cc(C(=O)NCCOC(C)C)ccc1OC1CCN(C2CCCC2)CC1	0.751	–
CCOC(=O)C1(Cc2cccc(Cl)c2)CCCN(C(=O)c2cnn3cccnc23)C1 (stereo not given)	0.74	–
Cc1c(CC(=O)NC(C)CO)c2c(n1Cc1ccccc1F)CCCC2=O (stereo not given)	0.865	–
COc1ccc(CN(C)CC2CCCN(CCc3ccc(F)cc3)C2)cc1O (stereo not given)	–	0.814
CCC(CC)NC(=O)C1CCC(=O)N(Cc2ccccc2F)C1 (stereo not given)	–	0.875
CC(NC(=O)c1cc(COc2ccc3c(c2)OCO3)[nH]n1)c1cnn(C)c1 (stereo not given)	–	1.04
COc1ccc(-c2noc(CN3CCCCC3CO)n2)c(OC)c1OC (stereo not given)	–	0.938
COc1ccc(OC)c(CN2CCCC(C(=O)c3ccc(OC)c(F)c3)C2)c1 (stereo not given)	0.731	–
COc1ccc(NC(=O)CCC2CCCN(C(=O)c3ccccc3C(C)=O)C2)cc1Cl (stereo not given)	–	1.04
Cc1ncc2c(c1CNC(=O)c1ccc3c(c1)OCO3)CCN(C(=O)COc1ccccc1Cl)C2	1.06	–
CSCCCN1CCC(N2CCC(C(=O)NCc3cccnc3)CC2)CC1	–	0.96
CCS(=O)(=O)c1ncc(CN2CCC(C)CC2)n1CCOC	–	0.992
CCc1ccc(CN(C)C(=O)c2coc(COc3ccccc3)n2)nc1	0.78	–
COC1CCCN(c2ccc(C(=O)NCCCc3c(C)noc3C)cn2)C1 (stereo not given)	–	1.04
CN(C)c1ncc2c(n1)CCCC2NC(=O)CCN1CCCC1=O (stereo not given)	–	0.919
CCC(CC)C(=O)N1CCc2c(cnc(C)c2CNS(=O)(=O)c2cccs2)C1	0.971	–
CSc1ccccc1C(=O)NC1CCCN(CCc2ccccc2)C1 (stereo not given)	–	0.852

Record cards (already shown).
CCS(=O)(=O)c1ncc(CN2CCC(C)CC2)n1CCOC is listed with bacterial growth OD600 (polymyxin B 1 µg/mL): 0.992
Cc1c(CC(=O)NC(C)CO)c2c(n1Cc1ccccc1F)CCCC2=O (stereo not given) is listed with bacterial growth OD600 (polymyxin B 0.75 µg/mL): 0.865

— the supplement of paper PMC12889115
